Drawing on publication PMC4424835, this text covers binding for three substances.

By UniProt entry, the sequences of proteins in these tests, tags left out.
UniProt P08173: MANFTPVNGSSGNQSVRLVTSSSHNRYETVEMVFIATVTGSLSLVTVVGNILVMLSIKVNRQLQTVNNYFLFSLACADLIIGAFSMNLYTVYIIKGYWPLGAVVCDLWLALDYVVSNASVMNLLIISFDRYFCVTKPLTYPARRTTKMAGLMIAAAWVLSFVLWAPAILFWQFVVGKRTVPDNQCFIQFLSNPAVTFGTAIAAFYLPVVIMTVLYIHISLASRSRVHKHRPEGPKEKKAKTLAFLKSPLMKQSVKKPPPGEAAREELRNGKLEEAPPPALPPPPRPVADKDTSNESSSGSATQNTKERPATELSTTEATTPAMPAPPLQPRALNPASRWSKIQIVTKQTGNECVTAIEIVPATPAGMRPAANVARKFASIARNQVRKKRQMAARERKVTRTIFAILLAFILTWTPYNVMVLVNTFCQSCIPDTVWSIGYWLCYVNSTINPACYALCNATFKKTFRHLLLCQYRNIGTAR
UniProt P28223: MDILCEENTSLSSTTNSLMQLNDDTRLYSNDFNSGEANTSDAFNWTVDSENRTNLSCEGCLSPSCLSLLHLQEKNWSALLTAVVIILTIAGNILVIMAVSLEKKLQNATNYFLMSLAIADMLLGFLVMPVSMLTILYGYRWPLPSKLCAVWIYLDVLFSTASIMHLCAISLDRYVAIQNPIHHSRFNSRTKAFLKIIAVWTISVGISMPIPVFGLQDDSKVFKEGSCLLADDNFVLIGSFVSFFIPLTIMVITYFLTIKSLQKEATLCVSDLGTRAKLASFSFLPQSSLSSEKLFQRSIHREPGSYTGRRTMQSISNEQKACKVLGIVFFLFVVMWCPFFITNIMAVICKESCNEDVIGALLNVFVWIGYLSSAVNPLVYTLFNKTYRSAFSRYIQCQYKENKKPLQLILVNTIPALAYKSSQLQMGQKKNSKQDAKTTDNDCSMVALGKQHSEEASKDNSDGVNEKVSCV
UniProt P08913: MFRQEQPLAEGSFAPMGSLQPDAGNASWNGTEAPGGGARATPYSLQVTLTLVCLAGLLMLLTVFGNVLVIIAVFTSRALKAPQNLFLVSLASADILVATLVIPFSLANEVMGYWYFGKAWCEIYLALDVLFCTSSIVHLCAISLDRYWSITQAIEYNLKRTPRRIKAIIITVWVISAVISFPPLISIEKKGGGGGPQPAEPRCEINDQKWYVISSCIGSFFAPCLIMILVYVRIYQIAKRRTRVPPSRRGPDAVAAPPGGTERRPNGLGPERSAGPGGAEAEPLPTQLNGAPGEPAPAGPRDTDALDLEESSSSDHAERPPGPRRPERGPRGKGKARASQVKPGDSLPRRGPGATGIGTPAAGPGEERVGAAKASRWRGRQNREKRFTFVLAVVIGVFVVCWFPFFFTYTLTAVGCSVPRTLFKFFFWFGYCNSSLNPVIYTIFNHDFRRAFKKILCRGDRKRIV

No constants are given. Whether binding was seen depends on the method and setting. In cells and extracts the contact can be indirect.

The test addresses β2 adrenergic receptor (UniProt P07550). Put plainly: FRET or BRET; BRET in living Flp-In T-REx HEK 293 cells; acceptor β2AR-V induced with 0-0.1 μg/ml tetracycline (~75 to ~3,000 μm^-2), Rluc8 donor transiently transfected for 12-48 h at several expression levels; net BRET versus acceptor expression; coelenterazine h 5 μM; room temperature (~25 °C). A general note: BRET reads energy transfer from a luciferase to a nearby fluorophore.
As to “M4 muscarinic acetylcholine receptor fused to Rluc8 (from UniProt P08173 1-479)”, the binding entry is recorded as “no binding (tested: ~3,000 μm^−2 (highest β2AR-V density))”.
Turning to “5HT2A serotonin receptor fused to Rluc8 (from UniProt P28223 1-471)”, the binding entry was “no binding (tested: ~3,000 μm^−2 (highest β2AR-V density))”.
Consider “α2A adrenergic receptor fused to Rluc8 (from UniProt P08913 1-465)”, for which the binding result was “no binding (tested: ~3,000 μm^−2 (highest β2AR-V density))”.
